Where “and” joins values, the source holds several entries; their conditions need not be identical. Equal entries are not always repeated. The campaign covered roughly 78,000 compounds. About 1,800 (2.3%) were called active. Inconclusive means that the source gave no clear call. Such entries were picked first, then a sample of the others. No stated cut-off is given here; in the data, active means inhibition above about 30%; inconclusive means mostly about 10% to 28%; inactive means weaker than that.
Biological target: Interleukin-1 receptor-like 1 (Homo sapiens) (UniProt Q01638)
Assay: blocks human ST2 binding to IL-33, primary screen, biochemical, AlphaLISA (AID 1259354)
Details: AlphaLISA ST2-Fc/biotin-IL-33 interaction, 1 h; at 17 µM, stronger effect = higher value

Amino acid sequences for entries named in this document (tags omitted). A change or cut given only in a name is not applied to a line headed by its entry.
UniProt Q01638: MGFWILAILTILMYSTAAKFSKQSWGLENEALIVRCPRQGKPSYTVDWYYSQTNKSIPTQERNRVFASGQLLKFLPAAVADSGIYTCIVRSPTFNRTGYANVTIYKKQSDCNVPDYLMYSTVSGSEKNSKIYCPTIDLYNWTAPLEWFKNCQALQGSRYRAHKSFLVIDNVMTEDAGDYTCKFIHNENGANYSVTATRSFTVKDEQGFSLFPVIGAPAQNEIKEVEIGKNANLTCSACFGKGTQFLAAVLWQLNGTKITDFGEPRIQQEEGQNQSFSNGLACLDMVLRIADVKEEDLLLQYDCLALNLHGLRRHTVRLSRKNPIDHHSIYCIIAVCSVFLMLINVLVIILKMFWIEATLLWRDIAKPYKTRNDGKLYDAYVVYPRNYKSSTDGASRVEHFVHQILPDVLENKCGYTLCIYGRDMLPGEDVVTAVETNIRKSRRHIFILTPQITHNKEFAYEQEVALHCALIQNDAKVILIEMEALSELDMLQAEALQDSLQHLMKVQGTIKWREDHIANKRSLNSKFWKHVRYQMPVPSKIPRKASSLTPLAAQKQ

| Structure (SMILES) | inhibition |
| --- | --- |
| Cc1nc(C)n(CCNc2nc(-c3ccncc3)nc3c2CCNC3)n1 | inconclusive: 15% |
| O=C(NCc1ccccc1)c1ccccc1Cl | inconclusive: 18% |
| O=c1c2cccc3c2c(nn1CN1CCCCC1)-c1ccccc1-3 | inconclusive: 15% |
| COc1ccc(/C=C2/C(=O)NN(c3ccc(C)c(Cl)c3)C2=O)cc1OC | inconclusive: 10% |
| O=C(c1ccc(N2CCC(CO)C2)nc1)N1CCC(CCc2ccccc2)CC1 (configuration not stated) | inconclusive: 22% |
| COc1cc2c(cc1OC)CN(C(=O)CC1C(=O)NCCN1Cc1ccccn1)CC2 (configuration not stated) | inactive |
| COc1ccc([N+](=O)[O-])cc1-c1ccc(/C=C2\NC(=O)N(Cc3ccc(Cl)cc3)C2=O)o1 | inconclusive: 14% |
| O=S(=O)(N[C@H]1CO[C@H]2[C@@H]1OC[C@@H]2n1cc(-c2ccccn2)nn1)c1cccs1 | inconclusive: 20% |
| C/C=C/CN1CCC=C(CNC(=O)c2ccccc2NC(C)=O)C1 | inactive |
| CCCCN(C)c1nc(-c2ccc([N+](=O)[O-])cc2)nc2ccccc12 | active: 39% |
| O=C(N[C@H]1CO[C@H]2[C@@H]1OC[C@@H]2Nc1nccc(-c2ccccc2)n1)N1CCOCC1 | inconclusive: 15% |
| CCCc1cc(C(=O)N2CCCC(c3[nH]ncc3-c3ccccc3)C2)ccn1 (configuration not stated) | inconclusive: 10% |
| Nc1ncnc(Nc2ccc(SC(F)F)cc2)c1[N+](=O)[O-] | inconclusive: 24% |
| CC(=O)c1ccc(NC(=O)CN2CCCN(Cc3cccc(C)c3)S2(=O)=O)cc1 | inconclusive: 19% |
| Cc1cc2c(C)nc(N3CCC(N4CCCN(C(=O)c5ccco5)CC4)CC3)nc2cc1F | inconclusive: 14% |
| O=[N+]([O-])c1cc(Br)cc(C=Nc2ccc(I)cc2)c1O | inactive |
| Cc1ccc(/C=C/C(=O)Nc2ncc(Cc3ccc(F)cc3)s2)o1 | inconclusive: 12% |
| Cn1cnnc1Sc1ccc(CN2CCCC(CNC(=O)c3cc4ccccc4[nH]3)C2)o1 (configuration not stated) | inconclusive: 11% |
| Cc1nc(C(=O)N2CCCC(CNC(=O)c3cccc4ccccc34)C2)cs1 (configuration not stated) | inconclusive: 11% |
| COc1ccc2oc(=O)c(C(=O)Nc3ccc(I)cc3)cc2c1 | inactive |
| COc1cc2c(cc1OC)C(C(=O)NCc1cccnc1)C(c1ccccc1F)N(C)C2=O (configuration not stated) | inconclusive: 18% |
| Cn1c(=O)[nH]c(=O)c2c1nc(CN1CCN(Cc3ccccc3)CC1)n2Cc1ccc(Cl)cc1 | inactive |
| COc1cccc2c1NC1CC(C)CCC1C2(C)C (configuration not stated) | inconclusive: 22% |

| Structure (SMILES) | inhibition |
| --- | --- |
| O=C1CCC(C(=O)N2CCc3sccc3C2)CN1Cc1ccccn1 (configuration not stated) | inconclusive: 12% |
| Cc1ccc(S(=O)(=O)N2CCN(C(=O)c3ccc([N+](=O)[O-])cc3)C2C(C)C)cc1 (configuration not stated) | inconclusive: 22% |
| Cc1nc(C(=O)NCc2csc(-c3ncccn3)n2)cs1 | inconclusive: 10% |
| O=C(CCSc1ccccc1)NC1CC1 | inactive |
| CCOC(=O)c1ccc(N2C(=O)C(=O)C(=C(O)c3ccc(OC)cc3)C2c2ccc(C)cc2)cc1 (configuration not stated) | inactive |
| CCOc1ccccc1Nc1ncnc2c1cnn2-c1cccc(C)c1 | inactive |
| O=C(C[C@@H]1O[C@H](CNC(=O)Nc2cccc(F)c2)[C@@H](O)[C@H]1O)NCc1ccc(F)cc1 | inconclusive: 23% |
| CCN1CCN(C(=O)CCC2CCN(C(=O)C3=CCCCC3)CC2)CC1 | inconclusive: 18% |
| Cc1cccc(C(C(=O)NCc2nc(-c3cccnc3)no2)N(C)C)c1 (configuration not stated) | inconclusive: 19% |
| Cc1ccc(-n2c(=O)c3sccc3n(CC(=O)NC3CCCC3)c2=O)cc1F | inactive |
| CN1c2ccccc2N(C)C1c1ccc(F)cc1 | inactive |
| CCOc1ccc(C2CC(c3c(Cl)cccc3Cl)n3nc(N)nc3N2)cc1 (configuration not stated) | inconclusive: 14% |
| CC(C)CC(C(N)=O)C1=NC(C)(C)Cc2ccccc21 (configuration not stated) | inconclusive: 14% |
| COc1ccc(Cn2c(C3CC(=O)N(C)C3)n[nH]c2=O)cc1 (configuration not stated) | inconclusive: 12% |
| COc1ccc(Cl)cc1/C=C1\C(=O)N(c2cccc(C(=O)O)c2)N=C1C | inactive |
| O=C(NC1CCCCC1)c1noc2c1CCCCC2 | inconclusive: 21% |
| Cc1ccc(-c2nc(N)n[nH]2)cc1 | inactive |
| Nc1nnc(CCCCn2c(-c3nonc3N)nc3ccccc32)s1 | inconclusive: 11% |
| O=c1[nH]c2ccc(Cl)cc2c(-c2ccccc2)c1C1=NOC(c2ccccc2)C1 (configuration not stated) | inconclusive: 25% and inconclusive: 16% |
| CCCCc1cc(C[C@H]2CNCC[C@H]2CC(=O)N2CCCCC2)no1 | inconclusive: 21% |
| COC(=O)[C@]1(C)C[C@H](C(=O)NCCc2cnccn2)[C@H](c2ccccc2C)N1C | inactive |
| CN1CCN(c2nc(-c3ccccc3)c(C#N)c(=O)[nH]2)CC1 | inactive |
| COCCC(=O)N1CCc2onc(C(c3ccccc3)c3ccccc3)c2C1 | inconclusive: 13% |

| Structure (SMILES) | inhibition |
| --- | --- |
| CC(=O)c1cccc(NC(=O)NC2CC(=O)N(CCc3ccccc3)C2)c1 (configuration not stated) | inactive |
| CC1CN(c2ccc([N+](=O)[O-])cc2S(=O)(=O)N2CCCCC2)CC(C)O1 (configuration not stated) | inconclusive: 20% |
| Cc1ccc(Nc2nc(O)c(C3=c4cc(Br)ccc4=NC3=O)s2)cc1C | inconclusive: 19% |
| CC(C)(C)c1nc(CN2C[C@H]3C[C@H](O)[C@@H](O)C[C@H]3C2)no1 | inactive |
| O=C(Nc1cccc(-c2nc3ccccc3s2)c1)C(F)(F)F | inactive |
| O[C@@H]1CN(Cc2c(Cl)nc3sccn23)CC[C@H]1c1ccc2c(c1)OCO2 | inconclusive: 17% |
| CCc1csc(Cn2cc(C(C)c3ccccc3)nn2)n1 (configuration not stated) | inactive |
| OC/C=C/c1ccc(O[C@@H]2O[C@H](CO)[C@@H](O)[C@H](O)[C@H]2O)cc1 | inactive |
| O=c1c2ccccc2nc(/C=C/c2ccc(Br)cc2)n1CCCO | inconclusive: 15% |
| CCCOC1CCCN(C(=O)c2cnc(C(C)C)nc2C)C1 (configuration not stated) | inconclusive: 11% |
| O=C(Nc1cccc(Br)c1)c1cc(=O)c2ccccc2o1 | inconclusive: 20% |
| CCOc1ccc(-c2[nH]nc3c2C(c2cn[nH]c2-c2ccc(F)cc2)C(C#N)=C(N)O3)cc1 (configuration not stated) | inconclusive: 17% |
| CC(C)OCC(=O)N1CCCC(C(=O)c2ccc(C(F)(F)F)cc2)C1 (configuration not stated) | inconclusive: 20% |
| O=C(NCc1cccnc1)c1cc(-c2ccc(Cl)c(Cl)c2)on1 | inconclusive: 10% |
| CN(C(=O)c1ccc(Cl)cc1Cl)C12CC3CC(CC(C3)C1)C2 | inconclusive: 21% |
| COc1ccccc1CNC(=O)C(C)Oc1ccccc1 (configuration not stated) | inconclusive: 14% |
| Cc1cc(C)n(C)c(=O)c1C(=O)NC(C)c1ccc(-n2cncn2)cc1 (configuration not stated) | inactive |
| COc1ccccc1NC(=O)NCC1CCCN(Cc2cnc[nH]2)C1 (configuration not stated) | inactive |
| O=C(c1cccs1)n1nnc2ccccc21 | inconclusive: 12% |
| O=C(c1cnc(Nc2ccccc2)nc1)N1CCC(O)(CO)CC1 | inconclusive: 13% |
| COCc1nc(N2CCc3cc(OC)c(OC)cc3C2C)c2cnn(C)c2n1 (configuration not stated) | inconclusive: 15% |
| CCCS(=O)(=O)N1CCCC(C(=O)NC)C1 (configuration not stated) | inactive |
| COc1ccc(N2CCCS2(=O)=O)cc1NC(=O)c1cc(Cl)ccc1OC | inactive |

| Structure (SMILES) | inhibition |
| --- | --- |
| CN1C[C@@H](NC(=O)Nc2cccc(C(F)(F)F)c2)C[C@H]1c1nc(-c2ccccn2)no1 | inconclusive: 19% |
| O=C(CSc1cn(CCNC(=O)c2ccc(F)cc2)c2ccccc12)NC1CCCCC1 | inactive |
| COC(=O)[C@@H]1Cc2ncn(C(C)C)c2CN1C(=O)c1ccccc1 | inconclusive: 16% |
| COc1ccc(-c2nc3sccn3c2Nc2ccc3c(c2)OCCO3)cc1 | inconclusive: 29% |
| CCn1ncnc1CN1CCC(CNC(=O)c2ccc(C)nc2)C1 (configuration not stated) | inconclusive: 13% |
| CCSc1nnc2n(-c3ccccc3OC)c(=O)c3c4c(sc3n12)CCC4 | inconclusive: 11% |
| O=C(N[C@H]1CO[C@H]2[C@@H]1OC[C@@H]2n1cc(-c2ccccn2)nn1)c1ccc(C(F)(F)F)cc1 | inconclusive: 13% |
| Cc1cc(C)n(-c2ccc(NC(=O)C3CCN(C(=O)C4CC45CCC5)CC3)cc2)n1 (configuration not stated) | inconclusive: 13% |
| CC(C)CCn1c(CNC(=O)C2CC3(CCNCC3)CN2)nc2cccnc21 (configuration not stated) | inconclusive: 12% |
| COc1cccc(CC2CN(C(=O)c3cccc(Cn4cccn4)c3)CCO2)c1 (configuration not stated) | inconclusive: 19% |
| CC(C)CN(Cc1ccsc1)C(=O)c1cccnc1N1CCOCC1 | inconclusive: 11% |
| COc1ccc(NC2=C(N(C)C)C(=O)c3ccccc3C2=O)cc1 | active: 44% |
| Cc1[nH]c2ccccc2c1CC(=O)NCc1nnc(-c2ccccc2)o1 | inconclusive: 23% |
| CCC(C)Nc1nc(NC(C)C)nc(Oc2ccc(C(=O)OC)cc2)n1 (configuration not stated) | inactive |
| Cc1ccc(S(=O)(=O)C2(C(=O)NCCc3ccc(Cl)cc3)CC2)cc1 | inconclusive: 11% |
| CN(C(=O)c1ccco1)C(Cc1ccc(F)cc1F)C1CCN(Cc2cc(Cl)ccc2O)CC1 (configuration not stated) | inconclusive: 15% |
| COc1cc(C(C)(C)C)cc(Br)c1O | inconclusive: 16% |
| CC1=NN(c2ccccc2)C(=O)C1C(c1cccc(Cl)c1)C(C#N)C#N (configuration not stated) | active: 62% |
| CN(C)S(=O)(=O)N1CCc2onc(C(c3ccccc3)c3ccccc3)c2C1 | inconclusive: 12% |
| CCOC(=O)c1nn(CCc2ccc(OC)cc2)c2c1CN(Cc1cccn1-c1ccccn1)CC2 | inactive |
| COc1ccc(CC2(CCC(=O)NCc3nc4cc(C(F)(F)F)ccc4n3C)CCC(=O)N2)cc1 (configuration not stated) | inconclusive: 12% |
| CCSc1nnc2c(n1)OC(c1cccs1)N(C(=O)CC)c1ccccc1-2 (configuration not stated) | inconclusive: 20% |
| CCC1CCCCN1C(=O)CSc1nc2c(c(=O)n1-c1ccc(Cl)cc1)SCC2 (configuration not stated) | inactive |

Of the compounds above, these have two or more sulfur atoms:

| Structure (SMILES) | inhibition |
| --- | --- |
| O=S(=O)(N[C@H]1CO[C@H]2[C@@H]1OC[C@@H]2n1cc(-c2ccccn2)nn1)c1cccs1 | inconclusive: 20% |
| Cc1nc(C(=O)NCc2csc(-c3ncccn3)n2)cs1 | inconclusive: 10% |
| CCSc1nnc2n(-c3ccccc3OC)c(=O)c3c4c(sc3n12)CCC4 | inconclusive: 11% |
| CCSc1nnc2c(n1)OC(c1cccs1)N(C(=O)CC)c1ccccc1-2 (configuration not stated) | inconclusive: 20% |
| CCC1CCCCN1C(=O)CSc1nc2c(c(=O)n1-c1ccc(Cl)cc1)SCC2 (configuration not stated) | inactive |

— PubChem BioAssay AID1259354 (Paczesny and Yang Labs, IUPUI and University of Michigan, 2018)
